For at least one entry, the source does not settle the construct or the ends of the probe. A weaker result is weaker than the reference pair of the same experiment. For some assays here: At least one verdict was read from the data and is not stated in words by the source. Tags and fusion partners may be left off the protein sequences shown.
Experiments:
[1] = biological target: T1, ApOrc1 (Orc1-1) (Aeropyrum pernix) (UniProt Q9YEV6); experiment: EMSA; conditions: 100-300 nM protein, EMSA: 40 mM HEPES-KOH pH 8, 25 mM [truncated], 5% PAGE in TBE, recombinant protein
T1 sequence (looked up, limits assumed): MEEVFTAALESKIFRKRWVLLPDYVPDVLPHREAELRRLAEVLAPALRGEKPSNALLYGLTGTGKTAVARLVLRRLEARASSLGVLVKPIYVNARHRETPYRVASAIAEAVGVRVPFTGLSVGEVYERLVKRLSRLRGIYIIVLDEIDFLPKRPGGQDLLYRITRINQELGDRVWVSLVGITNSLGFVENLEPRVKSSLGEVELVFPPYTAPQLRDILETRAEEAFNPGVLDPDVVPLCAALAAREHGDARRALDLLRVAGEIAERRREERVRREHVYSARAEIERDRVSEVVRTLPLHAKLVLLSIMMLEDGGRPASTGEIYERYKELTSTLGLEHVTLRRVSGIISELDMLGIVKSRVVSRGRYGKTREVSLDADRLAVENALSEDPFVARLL

[2] = biological target: T1, ApOrc1 (Orc1-1) (Aeropyrum pernix); experiment: SPR; conditions: SPR: HBS-EP + 10 mM MgCl2, 2 mM ATP, recombinant protein, single-stranded DNA
[3] = biological target: T1, ApOrc1 (Orc1-1) (Aeropyrum pernix); experiment: BLI; conditions: recombinant protein, single-stranded DNA
[4] = biological target: T1, ApOrc1 (Orc1-1) (Aeropyrum pernix); experiment: MST; conditions: recombinant protein; label: 5' biotin (BLI, SPR), fluorescent (MST); single-stranded DNA

“AGCTCACAATTCCACACAACATACGAGCCGGAAGCATAAAGTGTAAAGCCTGGGGTGCCTAATGAGTGAGCTAACTCACATTAATTGCGTTGCGCTCACTGCCCGCTTTCCAGTCGGGAAACCTGTCGT (double strand) [pUC18 fragment dsDNA]”: binds more weakly ([1]; fuzzy band only, label: Alexa555-dCTP by TdT).
CAAATCAAGCTAGAAACAAACAAAGACACA [R1 top]: binds more weakly ([2]; label: 5' biotin); binds more weakly ([3]; label: 5' biotin).
“CAAATCAAGCTAGAAACAAACAAAGACACACTATAATCCAGAACTGCACAGCCTGA [R top]”: binds more weakly ([3]; label: 5' biotin (BLI, SPR), fluorescent (MST)); binds more weakly [4].
CTATAATCCAGAACTGCACAGCCTGA [R2 top]: binds more weakly ([2]; label: 5' biotin); binds more weakly ([3]; label: 5' biotin).
“GAAGCGTATACTCCTCCCGAATAGTGCTCTTGAAGAATGCCAATATAATGATACAAAAACCCAGTTTTAAA [L top]”: binds more weakly ([3]; label: 5' biotin).
“GCAGCCCTGGTTAAAAACAAGGTTTATAAATATTGGTTTAAAAGCAGGTTAAAAGACAGGTTAGCGGTGG [ssDNA unspecific (RK2 AT-rich region)]”: binds more weakly ([2]; response similar to R top, label: 5' biotin).
TCAGGCTGTGCAGTTCTGGATTATAG [R2 bottom]: binds more weakly ([2]; label: 5' biotin); binds more weakly ([3]; label: 5' biotin).
“TCAGGCTGTGCAGTTCTGGATTATAGTGTGTCTTTGTTTGTTTCTAGCTTGATTTG [R bottom]”: binds more weakly ([2]; no ATP, label: 5' biotin (BLI, SPR), fluorescent (MST)); binds [4].
“TTTTTTTTTTTTTTTTTTTTTTTTTTTTTTTTTTTTTTTTTTTTTTTTTTTTTTTTTTTTTTTTTTTTTT [polyT(70)]”: binds more weakly ([1]; faint band, label: 5' Cy3, single-stranded DNA).

From PMC8287685, “Archaeal Orc1 protein interacts with T-rich single-stranded DNA”
